Experimental data published in patent US8586743B2, “Labeling reagents and methods of their use” (Life Technologies Corporation, priority 2007, dated 2013).

System: Goat anti-Mouse antibody
Assay: Goat anti-Mouse antibody labeling (degree of labeling)
Conditions: for Degree of Labeling (antibody, long incubation): room temperature

In the case of N=c1ccc2c(-c3ccc(C(=O)Oc4c(Cl)cc(S(=O)(=O)O)cc4Cl)cc3C(=O)O)c3ccc(N)c(S(=O)(=O)O)c3oc-2c1S(=O)(=O)O [Compound 102], the “Goat anti-Mouse Antibody Degree of Labeling” value (10 mM HEPES buffer pH 8.2, 0.2M NaCl, Molar Ratio 5, room temperature 1 hour) was 2.1, the “Goat anti-Mouse Antibody Degree of Labeling” value (10 mM HEPES buffer pH 8.2, 0.2M NaCl, Molar Ratio 10, room temperature 1 hour) was 3.2 and the “Goat anti-Mouse Antibody Degree of Labeling” value (10 mM HEPES buffer pH 8.2, 0.2M NaCl, Molar Ratio 15, room temperature 1 hour) was 4.8. For the same molecule, the “Goat anti-Mouse Antibody Degree of Labeling” value (10 mM HEPES buffer pH 8.2, 0.2M NaCl, Molar Ratio 20, room temperature 1 hour) was 5.0, the “Degree of Labeling (antibody, long incubation)” value (10 mM HEPES buffer pH 8.2, 0.2M NaCl, molar ratio of 12, incubation 20 hrs) was 8.6 and the “Goat anti-Mouse Antibody Degree of Labeling” value (20 mM Tris buffer pH 8.6, Molar Ratio 5, room temperature 1 hour) was 2.2. The “Goat anti-Mouse Antibody Degree of Labeling” value (20 mM Tris buffer pH 8.6, Molar Ratio 10, room temperature 1 hour) was 3.0, the “Goat anti-Mouse Antibody Degree of Labeling” value (20 mM Tris buffer pH 8.6, Molar Ratio 15, room temperature 1 hour) was 3.5 and the “Goat anti-Mouse Antibody Degree of Labeling” value (20 mM Tris buffer pH 8.6, Molar Ratio 20, room temperature 1 hour) was 3.8. The “Degree of Labeling (antibody, long incubation)” value (20 mM Tris buffer pH 8.6, molar ratio of 12, incubation 12 hrs) was 7.5, the “Degree of Labeling (antibody, long incubation)” value (25 mM phosphate buffer pH 7.2, molar ratio of 12, incubation 6 hrs) was 6.5 and the “Goat anti-Mouse Antibody Degree of Labeling” value (25 mM phosphate buffer pH 8.6, Molar Ratio 5, room temperature 1 hour) was 4.5. For the same molecule, the “Goat anti-Mouse Antibody Degree of Labeling” value (25 mM phosphate buffer pH 8.6, Molar Ratio 10, room temperature 1 hour) was 7.5, the “Goat anti-Mouse Antibody Degree of Labeling” value (25 mM phosphate buffer pH 8.6, Molar Ratio 15, room temperature 1 hour) was 10.0 and the “Goat anti-Mouse Antibody Degree of Labeling” value (25 mM phosphate buffer pH 8.6, Molar Ratio 20, room temperature 1 hour) was 12.6. For the same molecule, the “Degree of Labeling (antibody, long incubation)” value (25 mM phosphate buffer pH 8.6, molar ratio of 12, incubation 3 hrs) was 8.9.
